Screening data, single-dose tests

Protein sequences, listed by entry. Tags and fused reporters are not part of them. Residues count along the entry.
UniProt P9WPC5, whole entry: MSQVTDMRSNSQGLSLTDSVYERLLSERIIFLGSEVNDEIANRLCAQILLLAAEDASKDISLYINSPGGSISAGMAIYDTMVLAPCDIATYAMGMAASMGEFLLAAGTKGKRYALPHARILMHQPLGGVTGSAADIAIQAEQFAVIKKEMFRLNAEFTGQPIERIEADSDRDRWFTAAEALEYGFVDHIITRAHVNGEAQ
UniProt P9WPC3, whole entry partner: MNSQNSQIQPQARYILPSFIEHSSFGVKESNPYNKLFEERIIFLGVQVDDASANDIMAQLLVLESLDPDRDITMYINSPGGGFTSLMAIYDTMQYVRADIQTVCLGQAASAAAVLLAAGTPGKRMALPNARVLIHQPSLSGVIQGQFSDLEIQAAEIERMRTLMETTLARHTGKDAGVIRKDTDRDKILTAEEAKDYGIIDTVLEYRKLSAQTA
UniProt I6X8D2, whole entry: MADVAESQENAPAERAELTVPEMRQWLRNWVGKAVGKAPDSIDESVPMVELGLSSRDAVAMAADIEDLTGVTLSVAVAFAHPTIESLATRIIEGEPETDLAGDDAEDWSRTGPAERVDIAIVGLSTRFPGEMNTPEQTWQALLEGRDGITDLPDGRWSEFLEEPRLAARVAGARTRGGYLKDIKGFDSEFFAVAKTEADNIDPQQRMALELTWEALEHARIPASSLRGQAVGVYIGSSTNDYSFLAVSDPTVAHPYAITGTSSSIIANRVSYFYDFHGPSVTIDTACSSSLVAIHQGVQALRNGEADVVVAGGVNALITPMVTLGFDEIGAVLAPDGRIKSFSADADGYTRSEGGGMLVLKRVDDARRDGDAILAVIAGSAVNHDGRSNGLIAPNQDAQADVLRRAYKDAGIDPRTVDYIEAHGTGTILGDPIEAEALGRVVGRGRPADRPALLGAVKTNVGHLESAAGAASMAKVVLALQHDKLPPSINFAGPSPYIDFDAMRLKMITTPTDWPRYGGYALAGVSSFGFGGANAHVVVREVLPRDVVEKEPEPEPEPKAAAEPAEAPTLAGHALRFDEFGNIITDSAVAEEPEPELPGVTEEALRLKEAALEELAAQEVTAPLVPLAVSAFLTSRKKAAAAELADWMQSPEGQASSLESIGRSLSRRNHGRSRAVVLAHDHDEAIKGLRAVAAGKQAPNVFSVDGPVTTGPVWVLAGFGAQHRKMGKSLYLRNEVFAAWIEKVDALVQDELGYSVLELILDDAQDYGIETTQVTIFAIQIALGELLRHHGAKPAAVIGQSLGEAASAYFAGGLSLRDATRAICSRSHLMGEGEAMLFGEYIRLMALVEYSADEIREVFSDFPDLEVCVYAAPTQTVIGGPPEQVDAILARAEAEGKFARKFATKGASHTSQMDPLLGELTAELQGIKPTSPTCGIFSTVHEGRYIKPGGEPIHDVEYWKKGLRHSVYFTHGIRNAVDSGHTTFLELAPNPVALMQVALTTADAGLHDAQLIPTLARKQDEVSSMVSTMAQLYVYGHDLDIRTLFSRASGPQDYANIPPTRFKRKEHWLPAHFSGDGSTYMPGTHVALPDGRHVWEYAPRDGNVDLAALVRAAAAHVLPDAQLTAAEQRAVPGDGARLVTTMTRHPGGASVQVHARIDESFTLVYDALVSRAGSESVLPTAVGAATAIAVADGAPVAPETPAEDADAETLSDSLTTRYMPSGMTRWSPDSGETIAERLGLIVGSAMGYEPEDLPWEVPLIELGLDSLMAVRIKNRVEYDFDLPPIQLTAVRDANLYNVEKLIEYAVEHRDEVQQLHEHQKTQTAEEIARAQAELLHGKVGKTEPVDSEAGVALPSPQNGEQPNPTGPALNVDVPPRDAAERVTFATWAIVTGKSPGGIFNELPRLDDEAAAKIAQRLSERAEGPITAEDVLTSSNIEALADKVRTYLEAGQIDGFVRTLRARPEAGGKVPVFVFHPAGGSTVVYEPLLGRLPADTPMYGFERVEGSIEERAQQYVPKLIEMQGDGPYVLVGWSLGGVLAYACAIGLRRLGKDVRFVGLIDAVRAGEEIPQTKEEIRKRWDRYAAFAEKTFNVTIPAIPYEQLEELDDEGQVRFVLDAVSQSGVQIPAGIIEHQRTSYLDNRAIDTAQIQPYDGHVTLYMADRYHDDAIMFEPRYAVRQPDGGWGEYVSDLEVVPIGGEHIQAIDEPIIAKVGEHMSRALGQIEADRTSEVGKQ
UniProt Q8IDJ8, 1-583: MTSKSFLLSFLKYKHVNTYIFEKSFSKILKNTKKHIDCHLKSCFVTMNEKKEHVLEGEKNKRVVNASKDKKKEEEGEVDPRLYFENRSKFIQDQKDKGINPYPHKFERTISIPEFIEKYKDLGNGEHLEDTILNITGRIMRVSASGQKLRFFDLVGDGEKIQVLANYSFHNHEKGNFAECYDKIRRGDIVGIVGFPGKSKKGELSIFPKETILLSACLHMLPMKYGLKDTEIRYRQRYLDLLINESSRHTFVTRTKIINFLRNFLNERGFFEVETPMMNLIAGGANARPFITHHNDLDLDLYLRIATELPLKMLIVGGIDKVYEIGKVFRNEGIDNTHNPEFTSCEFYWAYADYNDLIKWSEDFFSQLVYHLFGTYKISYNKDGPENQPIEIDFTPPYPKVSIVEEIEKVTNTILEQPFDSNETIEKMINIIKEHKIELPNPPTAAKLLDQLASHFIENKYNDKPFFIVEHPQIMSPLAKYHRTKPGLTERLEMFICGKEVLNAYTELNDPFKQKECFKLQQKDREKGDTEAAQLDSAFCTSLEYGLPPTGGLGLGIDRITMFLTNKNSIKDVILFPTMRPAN

From ChEMBL document CHEMBL3988442, “University of Dundee, Small-Polar-MMV Screening Library” (2021).

ClpP1P2: 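ClpP1P2, Mycobacterium tuberculosis (UniProt P9WPC5 and UniProt P9WPC3). Protease assay of ClpP1P2, read by the AMC dye that it sets free. Tested at 50 µM. Direction is inferred from only a few compounds that gave an IC50; most scored high, so higher reads as stronger inhibition. Most other retested compounds had strongly negative values. Of about 69,000 compounds tested this way, about 10 (0.015%) reached 50% or more in at least one test.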
Leishmania in macrophages: 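Cell assay of Leishmania donovani living inside macrophages; the read-out is not stated. Concentration: 30 µM. The record gives no direction; compounds that gave an IC50 in retests scored well above the rest, so higher reads as stronger inhibition. Size under these conditions: about 69,000 compounds, about 1,000 of them at 50% or above in at least one test.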
Pks13 thioesterase: 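Polyketide synthase Pks13, Mycobacterium tuberculosis (UniProt I6X8D2). Enzyme assay of the thioesterase domain of polyketide synthase 13; the read-out is not stated. Compounds at 30 µM. Higher reads as stronger inhibition (inferred from which compounds were picked for retests). Size under these conditions: about 67,000 compounds, about 300 of them at 50% or above in at least one test.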
PfKRS1: 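Lysine-tRNA ligase, Plasmodium falciparum 3D7 (UniProt Q8IDJ8). Enzyme assay of the cytosolic lysyl-tRNA synthetase in 384-well plates, read by luminescence. Tested at 30 µM. Direction is inferred from only a few compounds that gave an IC50; most scored high, so higher reads as stronger inhibition. About 69,000 compounds were tested under these conditions; 0.071% (about 49) showed 50% or more at least once.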
Toxoplasma: 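Assay of Toxoplasma gondii numbers, read through their beta-galactosidase reporter with a colour substrate. Tested at 10 µM. Higher reads as fewer parasites (inferred from which compounds were picked for retests). Of about 67,000 compounds tested this way, about 260 (0.38%) reached 50% or more in at least one test.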

Results are given as percent effect.
The controls that fix the scale are not given in the record; negative values are as filed.
The compounds are a random part of those screened.

CC(O)C1CCN(Cc2nccn2CC(F)(F)F)CC1 (centres unmarked) gave ClpP1P2: -6.084%; Leishmania in macrophages: 3.947%; Pks13 thioesterase: -20.03%; PfKRS1: 4.446%; Toxoplasma: -18.21%.
CS(=O)(=O)N1CCN(C(=O)CCC2CCCO2)CC1 (centres unmarked) gave ClpP1P2: 8.394%; Leishmania in macrophages: 23.58%; Pks13 thioesterase: -1.399%; PfKRS1: 2.855%; Toxoplasma: -4.77%.
CN1CCCC(c2n[nH]c3ncccc23)C1 (centres unmarked) gave ClpP1P2: -1.747%; Leishmania in macrophages: 33.39%; Pks13 thioesterase: -31.69%; PfKRS1: 0.09186%; Toxoplasma: 1.73%.
Cc1cc(C)n(CC2CCCN2CCCS(=O)(=O)N(C)C)n1 (centres unmarked) gave ClpP1P2: -6.317%; Leishmania in macrophages: 10.2%; Pks13 thioesterase: -20.6%; PfKRS1: -0.37%; Toxoplasma: 0.577%.
CCCN(CC(F)F)c1cc(COC)nc2ncnn12 gave ClpP1P2: 9.699%; Leishmania in macrophages: 4.432%; Pks13 thioesterase: -38.92%; PfKRS1: 8.22%; Toxoplasma: -3.819%.
CC(C)n1cc(N2CC(C(=O)N3CCN(C)CC3)CC2=O)cn1 (centres unmarked) gave ClpP1P2: 9.948%; Leishmania in macrophages: 26.64%; Pks13 thioesterase: -9.497%; PfKRS1: -1.966%; Toxoplasma: 12.41%.
CN(C)C(=O)N1CC[C@]2(O)CCN(C(=O)c3ccc(C#N)nc3)C[C@@H]2C1 gave ClpP1P2: -4.124%; Pks13 thioesterase: -13.41%; PfKRS1: 4.422%.
COCC(=O)N1CC[C@]2(O)CCN(Cc3ccsc3)C[C@@H]2C1 gave ClpP1P2: 9.635%; Pks13 thioesterase: -14.13%; PfKRS1: 0.5034%.
Cc1ncc2c(n1)CN(Cc1cn3ccsc3n1)CC2 gave ClpP1P2: 0.1174%; Leishmania in macrophages: -4.858%; Pks13 thioesterase: -9.497%; PfKRS1: 1.052%; Toxoplasma: -3.277%.
[H][C@@]12CS(=O)(=O)C[C@]1([H])N(Cc1ccc(CCC)o1)CCN2C(=O)CC(C)C gave Leishmania in macrophages: 8.502%; Toxoplasma: 3.822%.
COc1ccc(-n2nnc(C(=O)NC(C)C)c2C2CC2)cc1 gave ClpP1P2: -11.91%; Leishmania in macrophages: 7.215%; Pks13 thioesterase: -17.9%; PfKRS1: -1.161%; Toxoplasma: -2.268%.
COCCN1CCCC(c2nccnc2-c2cccc(Cl)c2)C1 (centres unmarked) gave ClpP1P2: 4.424%; Leishmania in macrophages: 28.33%; Pks13 thioesterase: -8.002%; PfKRS1: -0.06285%; Toxoplasma: -4.994%.
c1cnc(N2CCC3(COCCN(CC4CC4)C3)C2)nc1 (centres unmarked) gave ClpP1P2: -6.424%; Pks13 thioesterase: -2.95%; PfKRS1: 3.942%.
CC(=O)N1CCC2(CC1)CNc1c(F)cccc12.Cl gave Leishmania in macrophages: -16.15%; Toxoplasma: -17.34%.
O=C(O)C(F)(F)F.O=C(O)C(F)(F)F.[H][C@]12C[C@@H](Cn3cncn3)N(C(C)=O)[C@@]1([H])CCN(Cc1ccccn1)C2 gave Leishmania in macrophages: -4.704%; Toxoplasma: 5.172%.
COc1ccc(CN(Cc2cc(C)no2)C2CC2)cc1 gave ClpP1P2: -1.378%; Leishmania in macrophages: 40.15%; Pks13 thioesterase: -10.36%; PfKRS1: 5.048%; Toxoplasma: 0.9416%.
Cc1n[nH]c(SCCNC2CCN(c3nc4ccccc4s3)CC2)n1 gave ClpP1P2: -10.23%; Leishmania in macrophages: 6.253%; Pks13 thioesterase: -40.01%; PfKRS1: 2.882%; Toxoplasma: 15.59%.
CC(C)N(CCCNC(=O)C1CCCN(C(N)=O)C1)S(C)(=O)=O (centres unmarked) gave ClpP1P2: -4.08%; Leishmania in macrophages: 13.06%; Pks13 thioesterase: -25.86%; PfKRS1: 10.05%; Toxoplasma: 15.39%.
Cn1ccnc1SCC(=O)NCCC1CCCO1 (centres unmarked) gave ClpP1P2: -11.45%; Leishmania in macrophages: -6.386%; Pks13 thioesterase: 2.619%; PfKRS1: -12.32%; Toxoplasma: -0.9132%.

For reference, 2 entries once more:

* COc1ccc(-n2nnc(C(=O)NC(C)C)c2C2CC2)cc1 | ClpP1P2: -11.91%; Leishmania in macrophages: 7.215%; Pks13 thioesterase: -17.9%; PfKRS1: -1.161%; Toxoplasma: -2.268%
* COCCN1CCCC(c2nccnc2-c2cccc(Cl)c2)C1 (centres unmarked) | ClpP1P2: 4.424%; Leishmania in macrophages: 28.33%; Pks13 thioesterase: -8.002%; PfKRS1: -0.06285%; Toxoplasma: -4.994%